Test results published in article PMC10350922, “Allosteric Inhibitors of Macrophage Migration Inhibitory Factor (MIF) Interfere with Apoptosis-Inducing Factor (AIF) Co-Localization to Prevent Parthanatos” (Journal of Medicinal Chemistry, 2023).
Results are given in words; binding and its absence hold for the method and conditions named. Some entries that bind do so weakly or less than the wild type. Sequences can lack the tags named with a protein.

Protein sequences, listed by entry. Tags and fused reporters are not part of them. Residues count along the entry.
UniProt O95831, residues 121-613: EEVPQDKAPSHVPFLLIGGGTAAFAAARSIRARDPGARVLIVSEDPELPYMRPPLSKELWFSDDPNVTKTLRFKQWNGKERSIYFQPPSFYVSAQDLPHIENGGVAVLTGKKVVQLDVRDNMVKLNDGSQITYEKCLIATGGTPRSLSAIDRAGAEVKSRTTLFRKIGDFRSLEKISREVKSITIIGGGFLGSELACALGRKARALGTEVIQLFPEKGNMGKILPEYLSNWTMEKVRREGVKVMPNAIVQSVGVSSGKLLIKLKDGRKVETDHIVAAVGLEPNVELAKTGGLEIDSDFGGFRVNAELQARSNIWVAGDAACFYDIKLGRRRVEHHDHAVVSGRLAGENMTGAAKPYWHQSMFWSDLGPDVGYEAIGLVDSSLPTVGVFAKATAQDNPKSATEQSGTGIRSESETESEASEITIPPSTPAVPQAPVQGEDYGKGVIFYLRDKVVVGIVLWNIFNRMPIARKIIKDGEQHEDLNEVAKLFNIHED

Molecular target: T1, Human recombinant untagged macrophage migration inhibitory factor (MIF) (human) (UniProt P14174)
T1 sequence: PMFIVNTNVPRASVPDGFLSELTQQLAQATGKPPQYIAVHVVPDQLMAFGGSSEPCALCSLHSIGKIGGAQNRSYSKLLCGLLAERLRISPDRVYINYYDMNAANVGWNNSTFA
Test: ELISA; untagged MIF (250 nM) coated on a high-binding 96-well plate overnight at 4 °C in binding buffer (Tris-HCl 100 mM, 5 mM MgCl2, 150 mM NaCl, pH 8.5); blocked with 2% BSA; pre-incubated with a concentration series of compound 6y for 30 min at rt; His-tagged AIF added at 4 μM for 2 h; detected with anti-poly-Histidine-peroxidase antibody; both purified

binding: binds
Substance: his-tagged recombinant apoptosis-inducing factor (AIF) (from UniProt O95831 121-613)
